Data from PMC12622487.

Molecular target: human insulin (heterodimer with three disulfide bonds) (human)
Assay: RP-HPLC of single-turnover insulin reduction products; pre-reduced TRX sample incubated with 10 mg/mL insulin for 0-90 min, reaction stopped by alkylation and trifluoroacetic acid; covalent mixed-disulfide forms seen as shifted peaks; both purified

B1: ORP-100 (C35S TRX; monocysteinic, chemically pre-reduced human thioredoxin-1) (enzyme, UniProt P10599 1-105)
chain: MVKQIESKTAFQEALDAAGDKLVVVDFSATWCGPSKMIKPFFHSLSEKYSNVIFLEVDVDDCQDVASECEVKCMPTFQFFKKGQKVGEFSGANKEKLEATINELV
For B1, the binding was “binds”.

No constants are given. Whether binding was seen depends on the method and setting. Binding calls can cover weak binding; strength is not graded here.
